Source: PMC9663306

Molecular target: T1, SF-IL-17RC (murine IL-17RC with C-terminal 2xStrep-3xFlag tag), in ST2 cells (mouse) (UniProt Q8K4C2)
T1 sequence (chain, N-glycosylated (100 kDa and 150 kDa forms)): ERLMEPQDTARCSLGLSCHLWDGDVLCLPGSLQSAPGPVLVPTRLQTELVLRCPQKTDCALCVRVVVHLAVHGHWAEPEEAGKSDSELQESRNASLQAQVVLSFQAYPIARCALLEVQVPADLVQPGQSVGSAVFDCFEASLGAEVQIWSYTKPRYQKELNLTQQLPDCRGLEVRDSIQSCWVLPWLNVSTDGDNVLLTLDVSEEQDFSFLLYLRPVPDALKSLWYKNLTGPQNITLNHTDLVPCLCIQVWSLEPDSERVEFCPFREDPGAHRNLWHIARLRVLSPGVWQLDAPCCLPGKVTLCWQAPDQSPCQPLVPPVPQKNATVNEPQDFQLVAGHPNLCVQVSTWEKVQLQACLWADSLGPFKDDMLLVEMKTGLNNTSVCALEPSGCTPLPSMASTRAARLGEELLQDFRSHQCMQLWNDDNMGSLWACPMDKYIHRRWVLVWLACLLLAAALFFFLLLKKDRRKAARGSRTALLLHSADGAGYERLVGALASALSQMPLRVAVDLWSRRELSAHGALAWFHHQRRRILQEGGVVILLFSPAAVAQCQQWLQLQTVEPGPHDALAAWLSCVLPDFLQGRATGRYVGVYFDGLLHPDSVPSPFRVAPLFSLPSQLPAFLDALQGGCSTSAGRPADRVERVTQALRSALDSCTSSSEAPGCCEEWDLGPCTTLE
Experiment: co-IP; Flag IP from lysates of Cmtm4−/− ST2 cells transduced with Myc-tagged members of the CMTM family (CMTM1–8) together with SF-IL-17RC, immunoblot

In the case of Myc-tagged CMTM2 (mouse), the binding is reported as “no binding”.

These are yes or no findings as the source states them, for the method shown. In cells and extracts the contact can be indirect. Where a sequence is shown, tags or fusion partners need not be part of it.
